The labels stand for the following.
B1: il10ra_site1_normal_mot_HHH_b2_06954_000000276_0001_1_20_H_._HHH_b2_04149_0001_0000200004_0000001_0 (protein)
chain: SSSSSEEEEIQEALLLAARVFALLTDPELAQELARLAHELARTGDPELAEELFELARELGSSSSS
B2: il10ra_site1_sap_17_mot_HHH_b1_07478_000000026_0001_21_37_H_._30473498bc9c9bc4038a1594c8f83366_0001_0001_0000200007_0000002_0_0001_af2pred_0001 (protein)
chain: SSSSKIVRVLFRAAKYLLEQGDIENAKLAIRDLEVAAKALNDPEARELVEELKELLEEIEKSSSS
B3: il10ra_site1_sap_16_mot_HHH_b2_00440_af2_000000075_0001_42_56_H_._HHH_b1_01499_0001_0000100006_0000001_0_0001_af2pred_0001 (protein)
chain: SSSSSSLEEEVEELYERAKELLEEGDPEEAARLLHRLAELALKSQDREAAKLAAEITKLSSSSSS
B4: il10ra_site1_sap_11_mot_HHH_b2_02567_af2_000000093_0001_41_57_H_._aad918059751cfb3ae4f7fa8c0860a5b_0001_1_af2_0001_0000100003_0000002_0_0001_af2pred_0001 (protein)
chain: SSSSSKEVEEVIELLRRVAELARRGDEEEAEELAREALQLAEEANNPVLEISARFLLKIVGSSSS
B5: il10ra_site1_sap_15_mot_HHH_b2_00984_000000042_0001_1_20_H_._HHH_b1_04439_0001_0000200021_0000001_0_0001 (protein)
chain: SSSSTEELFEKVEELIKEAIELFREGNPEEAQRLLEELLEELRELGDEALLWTVEYALRRLSSSS
B6: il10ra_site1_normal_mot_HHH_b1_07835_af2_000000063_0001_1_16_H_._HHH_b2_01717_0001_0000300012_0000001_0 (protein)
chain: SSSSDEEIRERVEELLEEVEHIEDPHEAAQLLFEALRRAYELRDPELIELVLRVAAELQESSSSS
B7: il10ra_site1_sap_27_mot_HHH_b1_01513_af2_000000021_0001_1_16_H_._HHH_b1_02119_0001_0001000018_0000001_0_0001 (protein)
chain: SSSSSSEEFIELLVEAVRLAFRRSDEELLRALWRLAKEWGKEGDEKYDEELRELIEEVGSSSSSS
B8: il10ra_site1_sap_12_mot_HHH_b2_01324_000000013_0001_20_37_H_._HHH_b1_06683_0001_0000500030_0000001_1_0001 (protein)
chain: SSSSSSSKEEVEEILEEAEHIENPEEASEVLLRALEVAWRHSDKEALRLVWRVVHELGSSSSSSS
B9: il10ra_site1_normal_mot_HHH_b1_05826_af2_000000294_0001_1_18_H_._HHH_b1_06555_af2_0001_0000100002_0000001_0_af2pred_0001 (protein)
chain: SSSSHEEILRLARKAVRLFLNGNPEEAKEVAQEALRLAEELGDEELAKYLRQLLESIEINGSSSS
B10: il10ra_site1_sap_14_mot_HHH_b1_06914_000000280_0001_1_18_H_._HHH_b1_03835_0001_0000200024_0000001_0_0001_af2pred_0001 (protein)
chain: SSSSSDEERDRRAVELALELLKLADEEVIRRLLRVAKRLAEELNDPELQRLIEEVEEELGSSSSS
B11: il10ra_site1_sap_21_mot_5fda0655e6834f3f331eaa9f580e88ed_0001_af2_000000239_0001_36_50_H_._6586f062cc7817236c67ed8004cc3ec0_0001_0001_0000200013_0000001_0_0001_ … (protein)
chain: SSSSSNDEVFEEVRRLLEEAAQIEDPEEAREVVEEAQRLAEETGNELLELAVEYLLELVGSSSSS
B12: il10ra_site1_normal_mot_HHH_b2_04680_000000215_0001_1_16_H_._HHH_b2_06837_af2_0001_0001300028_0000001_0_af2pred_0001 (protein)
chain: SSSSSSSEKKEVIRLLLEAARIEDPEEAREVVEEALRLAEELNDELLQRQAKVLLRVLSSSSSSS
B13: il10ra_site1_sap_26_mot_HHH_b2_07006_000000108_0001_1_19_H_._HHH_b2_07878_0001_0000200024_0000002_0_0001 (protein)
chain: SSSSDAAEFLLRQAIEAAKLALENGDPEKAEWALENARNLAEQLNDEEVQEEIEELEQELSSSSS
B14: il10ra_site1_sap_27_mot_HHH_b2_04057_000000065_0001_1_20_H_._HHH_b2_03219_af2_0001_0000200005_0000002_0_0001 (protein)
chain: SSSSSDSANEEVYRLSREAAELARKGDPRVEEVLEEAKEIAEEANNMLLQYQVEFLERHLSSSSS
B15: il10ra_site1_normal_mot_7d538683ae38ff56261eb02f12605454_0001_af2_000000062_0001_54_65_H_._HHH_b2_03877_0001_0000200010_0000002_0_af2pred_0001 (protein)
chain: SSSSDAEEEVRELALEFSHLLRNGDEEKAEEVLKEIERLAEESNDPQAKLILRLLELKLESSSSS
B16: il10ra_site1_normal_mot_HHH_b1_01821_000000158_0001_23_39_H_._HHH_b2_07101_0001_0000300018_0000001_0 (protein)
chain: SSSSSDEEERRQEVEELLEEARHIDDPEEVIELLLRALQLAYEVKDQELLQEIWELFHKLSSSSS
B17: il10ra_site1_normal_mot_HHH_b2_01310_000000089_0001_41_55_H_._HHH_b1_01285_af2_0001_0000100007_0000001_0_af2pred_dldesign_0_af2pred (protein)
chain: SSSSDDEEIEKMIEEIKELIEAGKLDEAIEKLREFTRKAWEANNEEWVAKVVELADKILESSSSS
B18: il10ra_site1_normal_mot_HHH_b2_00475_000000107_0001_44_57_H_._HHH_b2_01638_af2_0001_0000200008_0000002_0 (protein)
chain: SSSSEEEQRVAELLFRALRLLAEGNPEEAEKVVEEAQKLAEENNDEELRKYVEILRHFIESHSSS

Experimental findings from paper PMC10163288 are described below.

The other results are listed elsewhere or left out.

The assay deals with il10ra, Q13651. In words: yeast display titration.
For B1, the “apparent Kd” value is “inactive: no binding seen”.

Regarding B2, the “apparent Kd” value is “inactive: no binding seen”. Under B3 stands “inactive: no binding seen”; under B4, inactive: > 512 nM. Turning to B5, the “apparent Kd” value is “inactive: no binding seen”. With B6 the entry was “inactive: no binding seen”; with B7, “inactive: no binding seen”; with B8, “inactive: no binding seen”. With B9 the entry was “inactive: no binding seen”; with B10, “inactive: no binding seen”; with B11, “inactive: no binding seen”. Under B12 stands “inactive: no binding seen”. In the case of B13, the “apparent Kd” value is “inactive: no binding seen”.

Consider B14, for which the “apparent Kd” value was “inactive: no binding seen”.

Take B15: the “apparent Kd” value was “inactive: no binding seen”. Turning to B16, the “apparent Kd” value is “inactive: no binding seen”.

Take B17: the “apparent Kd” value is “inactive: no binding seen”. Under B18 stands “inactive: no binding seen”.
